Reference: PMC12701072
For at least one entry, the source does not settle the construct or the ends of the probe. For some of these results: Weaker means in comparison with the reference protein, sequence or condition of that experiment. At least one verdict rests on a figure or table, not on a statement of the authors. For some of these results: Where a protein sequence is shown, tags need not be part of it.

The chains behind the UniProt entries cited, without tags or fusion partners. Where a name states a change or a piece, a line headed by the entry shows the natural chain unless it says otherwise.
UniProt P19267: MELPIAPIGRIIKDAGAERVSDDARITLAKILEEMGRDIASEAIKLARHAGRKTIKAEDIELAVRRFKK

Key:
[1] = target: HMfB (Methanothermus fervidus) (UniProt P19267); assay: EMSA; conditions: EMSA: 25 mM Tris pH 8.0, 50 mM NaCl, 50 mM KCl, 37 C 10 min; recombinant protein
[2] = target: T1, HLp (Leptospira perolatii) (UniProt A0A2M9ZN55); assay: EMSA; conditions: EMSA: 25 mM Tris pH 8.0, 50 mM NaCl, 50 mM KCl, 37 C 10 min; recombinant protein; residues 1-63; protein details: N-terminal His6, cleaved with TEV protease
T1 sequence (looked up): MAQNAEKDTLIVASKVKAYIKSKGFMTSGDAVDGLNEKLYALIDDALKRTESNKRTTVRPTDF

Row | Sequence | binding result [1] | binding result [2]
1 | CCGTACTGTCGTCTGCGGCCTTTGATTATCAATTAAAGCGTTCTACGGCGTTTTTGATCGCTCAACGTGCGGAGCTAGAT (double strand) [80-bp DNA] | binds | 
2 | TTAAAGCCCGTTAAAGCCCGTTAAAGCCCG (double strand) [30-bp-GC50] |  | binds more weakly
3 | TTAAGCCCCGTTAAGCCCCGTTAAGCCCCG (double strand) [30-bp-GC60] |  | binds more weakly
4 | TTTAAAACGCTTTAAAACGCTTTAAAACGC (double strand) [30-bp-GC30] |  | binds more weakly
